{"sequences": {"note": "By UniProt entry, the sequences of proteins in these tests, tags left out.", "UniProt P38420": "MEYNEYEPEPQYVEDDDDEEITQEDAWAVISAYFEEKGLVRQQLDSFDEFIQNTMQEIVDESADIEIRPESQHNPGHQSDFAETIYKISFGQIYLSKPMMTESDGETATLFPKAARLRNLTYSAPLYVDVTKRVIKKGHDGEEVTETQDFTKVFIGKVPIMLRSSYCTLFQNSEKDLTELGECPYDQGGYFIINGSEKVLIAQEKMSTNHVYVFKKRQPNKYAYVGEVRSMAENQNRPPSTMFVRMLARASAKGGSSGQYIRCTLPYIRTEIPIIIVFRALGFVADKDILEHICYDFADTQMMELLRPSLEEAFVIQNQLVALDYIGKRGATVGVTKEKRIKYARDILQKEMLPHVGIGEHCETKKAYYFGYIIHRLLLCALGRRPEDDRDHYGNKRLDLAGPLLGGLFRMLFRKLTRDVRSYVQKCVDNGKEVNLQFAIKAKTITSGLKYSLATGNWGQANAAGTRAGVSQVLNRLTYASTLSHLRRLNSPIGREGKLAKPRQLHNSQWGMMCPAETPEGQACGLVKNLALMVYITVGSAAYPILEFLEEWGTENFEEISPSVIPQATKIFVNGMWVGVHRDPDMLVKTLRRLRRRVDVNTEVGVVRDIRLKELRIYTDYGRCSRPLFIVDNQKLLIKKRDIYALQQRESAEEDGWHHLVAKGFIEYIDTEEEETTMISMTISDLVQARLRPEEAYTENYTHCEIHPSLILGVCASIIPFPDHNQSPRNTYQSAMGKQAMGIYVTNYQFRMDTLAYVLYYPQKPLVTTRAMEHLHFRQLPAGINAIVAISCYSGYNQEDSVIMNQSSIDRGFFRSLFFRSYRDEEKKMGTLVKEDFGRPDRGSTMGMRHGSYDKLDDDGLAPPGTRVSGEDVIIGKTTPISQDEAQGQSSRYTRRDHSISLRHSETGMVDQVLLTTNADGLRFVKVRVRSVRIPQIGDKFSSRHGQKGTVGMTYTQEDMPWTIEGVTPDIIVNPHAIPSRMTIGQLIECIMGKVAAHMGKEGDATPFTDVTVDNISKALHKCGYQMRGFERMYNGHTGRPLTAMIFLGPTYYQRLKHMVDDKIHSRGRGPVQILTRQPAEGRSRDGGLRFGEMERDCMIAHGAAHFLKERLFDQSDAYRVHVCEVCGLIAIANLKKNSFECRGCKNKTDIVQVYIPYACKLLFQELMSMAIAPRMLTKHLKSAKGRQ", "UniProt Q9LXW7": "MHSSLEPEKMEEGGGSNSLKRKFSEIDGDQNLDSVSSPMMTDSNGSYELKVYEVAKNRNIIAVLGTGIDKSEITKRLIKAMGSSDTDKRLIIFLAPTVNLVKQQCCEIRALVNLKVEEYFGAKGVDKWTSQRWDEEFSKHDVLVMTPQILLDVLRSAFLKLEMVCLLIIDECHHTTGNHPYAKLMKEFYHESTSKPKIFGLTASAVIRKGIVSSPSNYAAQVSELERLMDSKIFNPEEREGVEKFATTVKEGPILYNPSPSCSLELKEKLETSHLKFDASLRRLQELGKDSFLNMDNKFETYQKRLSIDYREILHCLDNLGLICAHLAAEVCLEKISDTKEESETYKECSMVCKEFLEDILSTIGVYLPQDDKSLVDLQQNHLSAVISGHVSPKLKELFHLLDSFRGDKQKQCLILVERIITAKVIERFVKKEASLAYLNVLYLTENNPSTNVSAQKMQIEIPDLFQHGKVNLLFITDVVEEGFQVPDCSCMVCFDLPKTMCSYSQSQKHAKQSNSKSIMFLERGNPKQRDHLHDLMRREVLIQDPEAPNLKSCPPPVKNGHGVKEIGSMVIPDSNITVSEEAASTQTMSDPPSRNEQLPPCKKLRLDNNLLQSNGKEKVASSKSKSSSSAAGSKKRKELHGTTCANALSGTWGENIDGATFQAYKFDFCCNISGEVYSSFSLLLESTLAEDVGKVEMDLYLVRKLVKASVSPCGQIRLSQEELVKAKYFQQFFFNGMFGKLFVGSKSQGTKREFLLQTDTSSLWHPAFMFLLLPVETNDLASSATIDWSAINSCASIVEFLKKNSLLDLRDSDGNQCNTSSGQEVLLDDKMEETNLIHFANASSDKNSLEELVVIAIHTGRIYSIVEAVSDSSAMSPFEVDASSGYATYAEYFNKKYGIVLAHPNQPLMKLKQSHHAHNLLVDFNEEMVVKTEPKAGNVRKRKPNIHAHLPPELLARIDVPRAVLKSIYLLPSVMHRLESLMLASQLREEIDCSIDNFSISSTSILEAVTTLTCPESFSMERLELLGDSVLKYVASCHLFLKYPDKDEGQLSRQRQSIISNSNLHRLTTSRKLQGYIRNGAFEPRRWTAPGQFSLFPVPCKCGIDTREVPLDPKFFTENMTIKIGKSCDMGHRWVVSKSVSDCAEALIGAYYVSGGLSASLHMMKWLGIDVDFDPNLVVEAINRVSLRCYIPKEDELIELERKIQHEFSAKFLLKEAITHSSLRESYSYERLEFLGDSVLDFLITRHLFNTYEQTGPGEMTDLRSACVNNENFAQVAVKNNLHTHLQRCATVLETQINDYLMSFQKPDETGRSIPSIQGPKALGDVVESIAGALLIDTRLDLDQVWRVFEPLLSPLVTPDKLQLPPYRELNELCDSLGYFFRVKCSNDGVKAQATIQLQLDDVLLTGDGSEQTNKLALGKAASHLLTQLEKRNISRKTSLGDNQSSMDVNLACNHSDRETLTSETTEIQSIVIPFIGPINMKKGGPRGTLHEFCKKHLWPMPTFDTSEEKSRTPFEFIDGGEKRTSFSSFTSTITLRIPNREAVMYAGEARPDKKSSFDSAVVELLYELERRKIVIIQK", "UniProt P84634": "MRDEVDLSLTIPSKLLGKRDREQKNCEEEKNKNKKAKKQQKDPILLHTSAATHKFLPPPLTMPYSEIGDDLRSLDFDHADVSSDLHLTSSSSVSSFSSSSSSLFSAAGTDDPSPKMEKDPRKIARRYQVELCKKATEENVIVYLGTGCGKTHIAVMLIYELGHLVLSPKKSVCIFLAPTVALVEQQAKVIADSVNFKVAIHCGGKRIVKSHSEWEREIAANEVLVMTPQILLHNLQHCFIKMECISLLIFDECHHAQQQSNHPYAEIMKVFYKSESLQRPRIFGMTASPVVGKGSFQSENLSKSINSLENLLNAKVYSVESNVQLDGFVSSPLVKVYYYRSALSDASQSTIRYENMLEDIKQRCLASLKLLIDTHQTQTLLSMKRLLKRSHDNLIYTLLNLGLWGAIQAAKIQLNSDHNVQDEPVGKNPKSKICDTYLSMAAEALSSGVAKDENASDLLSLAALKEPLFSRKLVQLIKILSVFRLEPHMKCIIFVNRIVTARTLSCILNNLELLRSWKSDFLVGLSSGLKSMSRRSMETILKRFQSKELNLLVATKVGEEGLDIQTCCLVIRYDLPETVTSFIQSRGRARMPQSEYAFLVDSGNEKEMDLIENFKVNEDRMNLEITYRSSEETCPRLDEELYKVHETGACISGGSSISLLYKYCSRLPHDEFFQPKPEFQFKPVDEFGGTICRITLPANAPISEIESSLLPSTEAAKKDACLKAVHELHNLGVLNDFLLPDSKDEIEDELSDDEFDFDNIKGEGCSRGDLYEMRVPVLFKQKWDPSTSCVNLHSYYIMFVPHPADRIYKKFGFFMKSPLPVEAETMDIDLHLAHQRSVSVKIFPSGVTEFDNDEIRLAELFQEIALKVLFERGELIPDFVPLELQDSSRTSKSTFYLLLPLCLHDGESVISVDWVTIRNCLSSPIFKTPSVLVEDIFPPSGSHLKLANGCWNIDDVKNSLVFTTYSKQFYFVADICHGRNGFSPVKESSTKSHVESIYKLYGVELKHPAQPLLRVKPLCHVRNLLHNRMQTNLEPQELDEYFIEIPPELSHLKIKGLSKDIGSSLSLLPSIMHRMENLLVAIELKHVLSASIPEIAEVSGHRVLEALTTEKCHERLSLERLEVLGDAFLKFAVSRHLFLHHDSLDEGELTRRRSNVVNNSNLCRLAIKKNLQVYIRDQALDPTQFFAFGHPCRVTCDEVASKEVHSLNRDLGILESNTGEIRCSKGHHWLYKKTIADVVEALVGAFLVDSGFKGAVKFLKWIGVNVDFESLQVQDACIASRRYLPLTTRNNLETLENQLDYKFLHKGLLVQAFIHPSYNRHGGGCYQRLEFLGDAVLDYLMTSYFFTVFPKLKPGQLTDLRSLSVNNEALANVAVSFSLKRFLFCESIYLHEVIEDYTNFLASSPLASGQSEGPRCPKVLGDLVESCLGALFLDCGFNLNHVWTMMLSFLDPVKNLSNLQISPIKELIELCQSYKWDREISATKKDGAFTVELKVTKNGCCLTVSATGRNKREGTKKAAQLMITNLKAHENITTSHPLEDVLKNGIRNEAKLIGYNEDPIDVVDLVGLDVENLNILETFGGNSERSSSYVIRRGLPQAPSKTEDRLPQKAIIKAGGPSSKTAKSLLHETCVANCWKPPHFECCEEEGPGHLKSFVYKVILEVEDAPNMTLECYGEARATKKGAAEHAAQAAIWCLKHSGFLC", "UniProt Q9SP32": "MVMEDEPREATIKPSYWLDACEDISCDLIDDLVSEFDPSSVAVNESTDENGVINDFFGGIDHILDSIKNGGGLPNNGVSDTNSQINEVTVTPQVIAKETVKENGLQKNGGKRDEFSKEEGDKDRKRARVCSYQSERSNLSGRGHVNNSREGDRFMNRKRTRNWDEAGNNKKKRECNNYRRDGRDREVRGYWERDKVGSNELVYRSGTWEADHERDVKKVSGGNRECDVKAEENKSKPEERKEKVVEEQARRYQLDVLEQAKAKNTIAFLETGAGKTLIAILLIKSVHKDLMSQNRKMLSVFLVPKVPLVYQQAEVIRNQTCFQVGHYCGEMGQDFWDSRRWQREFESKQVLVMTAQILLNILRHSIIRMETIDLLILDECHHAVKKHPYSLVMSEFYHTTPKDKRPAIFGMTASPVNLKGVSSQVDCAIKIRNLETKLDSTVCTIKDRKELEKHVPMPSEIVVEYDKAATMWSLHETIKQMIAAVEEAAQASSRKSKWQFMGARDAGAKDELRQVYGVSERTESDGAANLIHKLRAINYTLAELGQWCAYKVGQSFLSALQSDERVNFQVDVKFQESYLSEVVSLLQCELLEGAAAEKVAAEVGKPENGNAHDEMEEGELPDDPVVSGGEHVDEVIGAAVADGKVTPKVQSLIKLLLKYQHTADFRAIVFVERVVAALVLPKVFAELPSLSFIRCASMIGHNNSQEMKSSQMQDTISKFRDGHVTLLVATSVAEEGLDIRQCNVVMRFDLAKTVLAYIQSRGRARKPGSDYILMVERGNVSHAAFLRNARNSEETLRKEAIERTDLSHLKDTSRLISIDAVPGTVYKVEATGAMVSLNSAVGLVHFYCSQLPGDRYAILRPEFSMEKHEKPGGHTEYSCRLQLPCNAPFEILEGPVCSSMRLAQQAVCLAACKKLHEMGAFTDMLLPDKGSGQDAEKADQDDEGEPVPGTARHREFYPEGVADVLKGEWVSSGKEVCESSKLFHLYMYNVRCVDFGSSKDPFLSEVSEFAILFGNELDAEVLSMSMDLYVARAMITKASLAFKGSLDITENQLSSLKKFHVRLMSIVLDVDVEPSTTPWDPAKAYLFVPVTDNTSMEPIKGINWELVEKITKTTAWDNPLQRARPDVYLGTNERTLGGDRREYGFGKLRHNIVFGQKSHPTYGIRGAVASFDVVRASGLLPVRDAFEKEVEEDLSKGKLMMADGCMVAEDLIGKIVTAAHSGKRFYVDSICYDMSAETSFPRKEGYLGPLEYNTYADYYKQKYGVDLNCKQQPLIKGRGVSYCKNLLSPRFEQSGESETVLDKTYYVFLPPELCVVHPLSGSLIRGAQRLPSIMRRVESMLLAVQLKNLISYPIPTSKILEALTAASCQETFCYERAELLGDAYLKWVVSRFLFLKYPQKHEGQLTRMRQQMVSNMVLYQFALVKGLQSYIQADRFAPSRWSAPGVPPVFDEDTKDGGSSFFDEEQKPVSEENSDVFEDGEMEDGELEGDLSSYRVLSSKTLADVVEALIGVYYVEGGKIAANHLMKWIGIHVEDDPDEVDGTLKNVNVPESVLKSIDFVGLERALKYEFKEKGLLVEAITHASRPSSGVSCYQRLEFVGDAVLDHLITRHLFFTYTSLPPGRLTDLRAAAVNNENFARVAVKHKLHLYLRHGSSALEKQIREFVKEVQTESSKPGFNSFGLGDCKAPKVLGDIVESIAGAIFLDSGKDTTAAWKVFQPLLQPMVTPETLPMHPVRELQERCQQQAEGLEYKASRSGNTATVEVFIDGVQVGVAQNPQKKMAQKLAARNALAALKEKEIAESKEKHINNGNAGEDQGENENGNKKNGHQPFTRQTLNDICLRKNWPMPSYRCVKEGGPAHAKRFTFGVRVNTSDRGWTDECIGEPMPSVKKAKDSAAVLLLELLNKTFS"}, "source": "paper PMC4256206", "molecules": {"B1": {"name": "PRL1-YFP expressed from the pPRL1::PRL1-YFP transgene in the prl1-2 complementation line (protein, UniProt Q42384 1-486)", "chain": "MPAPTTEIEPIEAQSLKKLSLKSLKRSLELFSPVHGQFPPPDPEAKQIRLSHKMKVAFGGVEPVVSQPPRQPDRINEQPGPSNALSLAAPEGSKSTQKGATESAIVVGPTLLRPILPKGLNYTGSSGKSTTIIPANVSSYQRNLSTAALMERIPSRWPRPEWHAPWKNYRVIQGHLGWVRSVAFDPSNEWFCTGSADRTIKIWDVATGVLKLTLTGHIEQVRGLAVSNRHTYMFSAGDDKQVKCWDLEQNKVIRSYHGHLSGVYCLALHPTLDVLLTGGRDSVCRVWDIRTKMQIFALSGHDNTVCSVFTRPTDPQVVTGSHDTTIKFWDLRYGKTMSTLTHHKKSVRAMTLHPKENAFASASADNTKKFSLPKGEFCHNMLSQQKTIINAMAVNEDGVMVTGGDNGSIWFWDWKSGHSFQQSETIVQPGSLESEAGIYAACYDNTGSRLVTCEADKTIKMWKEDENATPETHPINFKPPKEIRRF"}, "B2": {"name": "SE-MYC (protein, UniProt Q9ZVD0 1-720)", "chain": "MADVNLPPSDSVDNRLPEKSTSSSPPPPPPSSSLPQQEQEQDQQQLPLRRERDSRERRDERDIERPPPNRRERDRSPLPPPRRDYKRRPSLSPPPPYRDRRHSPPQRRSPPQKRYRRDDNGYDGRRGSPRGGYGPPDRRFGYDHGGGYDREMGGRPGYGDERPHGRFMGRYQDWEGGRGGYGDASNSGNPQRDGLMSYKQFIQELEDDILPSEAERRYQEYKSEYITTQKRAFFNTHKEEDWLKNKYHPTNLLSVIERRNDLAQKVAKDFLLDLQSGTLDLGPAVTALNKSGRTSEPNSEDEAAGVGKRKRHGMGGAKENELLSAAPKAPSFTSDPKRILTDVEQTQALVRKLDSEKKIEENVLQGSETEKSGREKLHSGSTGPVVIIRGLTSVKGLEGVELLDTLVTYLWRVHGLDYYGKVETNEAKGLRHVRAEGKVSDAKGDENESKFDSHWQERLKGQDPLEVMAAKEKIDAAATEALDPHVRKIRDEKYGWKYGCGAKGCTKLFHAAEFVYKHLKLKHTELVTELTTKVREELYFQNYMNDPNAPGGQPATQQSGPRDRPIRRKPSMENRLRDDRGGRRERDGRANGNDRNDRSEDQQRGDNDGGNPGEVGYDAFGGQGGVHVPPFLSDINPPPMLMPVPGAGPLGPFVPAPPEVAMQMFRDPSGPNPPFEGSGRGGPAPFLLSPAFRQDPRRLRSYQDLDAPEEEVTVIDYRSL"}, "B3": {"name": "recombined PRL1 fused with a maltose-binding protein at its N-terminus (MBP-PRL1) (protein, UniProt Q42384 1-486)", "chain": "B1 chain"}, "B4": {"name": "PRL1 fused with the C-terminal fragment of cyan fluorescent protein (cCFP-PRL1) (protein, UniProt Q42384 1-486)", "chain": "B1 chain"}, "B5": {"name": "PRL1-YFP transiently expressed in N. benthamiana (protein, UniProt Q42384 1-486)", "chain": "B1 chain"}}, "key": {"[1]": {"molecular_target": "T1, PRL1-YFP expressed from the pPRL1::PRL1-YFP transgene in the prl1-2 complementation line (Arabidopsis (Col)) (UniProt Q42384)", "T1 sequence": "B1 chain", "assay": "co-IP; protein extracts of transgenic plants harbouring pPRL1::PRL1-YFP; anti-YFP or anti-RPB2 antibodies coupled to protein G agarose beads, 4 h at 4°C; five washes; western blot"}, "[2]": {"molecular_target": "T2, PRL1-YFP transiently expressed in N. benthamiana (Arabidopsis (Col)) (UniProt Q42384)", "T2 sequence": "B1 chain", "assay": "co-IP; PRL1-YFP or YFP co-expressed with DCL1-MYC or SE-MYC in N. benthamiana; extracts incubated with anti-YFP or anti-MYC antibodies coupled to protein G agarose beads; western blot"}, "[3]": {"molecular_target": "RPB2, the second largest subunit of Pol II (Arabidopsis (endogenous in transgenic plants)) (UniProt P38420)", "assay": "co-IP; protein extracts of transgenic plants harbouring pPRL1::PRL1-YFP; anti-YFP or anti-RPB2 antibodies coupled to protein G agarose beads, 4 h at 4°C; five washes; western blot"}, "[4]": {"molecular_target": "DCL3-YFP (Arabidopsis) (UniProt Q9LXW7)", "assay": "co-IP; E. coli protein extracts containing MBP-PRL1 or MBP mixed with N. benthamiana protein extracts containing DCL3-YFP, DCL4-YFP or YFP; IP with anti-YFP antibodies"}, "[5]": {"molecular_target": "DCL4-YFP (Arabidopsis) (UniProt P84634)", "assay": "co-IP; E. coli protein extracts containing MBP-PRL1 or MBP mixed with N. benthamiana protein extracts containing DCL3-YFP, DCL4-YFP or YFP; IP with anti-YFP antibodies"}, "[6]": {"molecular_target": "T3, Cell Division Cycle 5 (CDC5) fused with the N-terminal fragment of Venus (nVenus) (Arabidopsis) (UniProt P92948)", "T3 sequence": "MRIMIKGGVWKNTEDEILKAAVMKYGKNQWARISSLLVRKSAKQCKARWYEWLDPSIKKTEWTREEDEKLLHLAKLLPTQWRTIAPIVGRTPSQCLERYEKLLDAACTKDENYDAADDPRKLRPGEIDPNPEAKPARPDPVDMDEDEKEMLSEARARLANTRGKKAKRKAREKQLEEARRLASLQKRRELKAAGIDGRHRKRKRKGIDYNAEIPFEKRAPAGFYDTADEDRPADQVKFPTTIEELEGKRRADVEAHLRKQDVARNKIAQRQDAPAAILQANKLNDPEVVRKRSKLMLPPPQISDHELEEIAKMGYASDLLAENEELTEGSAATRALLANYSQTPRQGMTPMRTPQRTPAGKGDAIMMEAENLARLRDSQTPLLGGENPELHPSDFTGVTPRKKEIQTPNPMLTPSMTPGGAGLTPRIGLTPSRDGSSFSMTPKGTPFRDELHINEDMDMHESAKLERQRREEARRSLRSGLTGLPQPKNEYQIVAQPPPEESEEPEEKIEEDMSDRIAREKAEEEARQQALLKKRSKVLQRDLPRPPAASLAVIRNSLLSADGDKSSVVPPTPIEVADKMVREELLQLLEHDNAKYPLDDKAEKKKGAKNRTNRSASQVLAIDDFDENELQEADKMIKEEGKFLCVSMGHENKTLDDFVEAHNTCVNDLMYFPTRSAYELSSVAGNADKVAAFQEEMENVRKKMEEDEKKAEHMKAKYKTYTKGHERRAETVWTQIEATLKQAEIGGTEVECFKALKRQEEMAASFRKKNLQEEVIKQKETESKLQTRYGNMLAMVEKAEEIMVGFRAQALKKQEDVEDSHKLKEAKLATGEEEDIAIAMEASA", "assay": "split reporter; BiFC: paired cCFP and nVenus constructs co-infiltrated in N. benthamiana leaves; yellow fluorescence read by confocal microscopy; 30 nuclei examined for each pair"}, "[7]": {"molecular_target": "DCL1 fused with the N-terminal fragment of Venus (nVenus) (Arabidopsis) (UniProt Q9SP32)", "assay": "split reporter; BiFC: paired cCFP and nVenus constructs co-infiltrated in N. benthamiana leaves; yellow fluorescence read by confocal microscopy; 30 nuclei examined for each pair"}, "[8]": {"molecular_target": "T4, HYPONASTIC LEAVES 1 (HYL1) fused with the N-terminal fragment of Venus (nVenus) (Arabidopsis) (UniProt O04492)", "T4 sequence": "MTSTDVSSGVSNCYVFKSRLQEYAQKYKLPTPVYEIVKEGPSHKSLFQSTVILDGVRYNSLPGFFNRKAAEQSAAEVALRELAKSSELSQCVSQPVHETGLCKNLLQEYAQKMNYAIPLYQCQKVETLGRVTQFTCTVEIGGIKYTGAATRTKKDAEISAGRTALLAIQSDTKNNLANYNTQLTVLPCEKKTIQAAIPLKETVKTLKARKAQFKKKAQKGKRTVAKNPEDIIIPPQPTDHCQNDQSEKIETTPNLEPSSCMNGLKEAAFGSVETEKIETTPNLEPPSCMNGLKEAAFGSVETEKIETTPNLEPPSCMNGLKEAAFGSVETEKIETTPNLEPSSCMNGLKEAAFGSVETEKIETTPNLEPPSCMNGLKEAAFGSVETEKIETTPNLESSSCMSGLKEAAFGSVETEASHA", "assay": "split reporter; BiFC: paired cCFP and nVenus constructs co-infiltrated in N. benthamiana leaves; yellow fluorescence read by confocal microscopy; 30 nuclei examined for each pair"}, "[9]": {"molecular_target": "T5, SERRATE (SE) fused with the N-terminal fragment of Venus (nVenus) (Arabidopsis) (UniProt Q9ZVD0)", "T5 sequence": "B2 chain", "assay": "split reporter; BiFC: paired cCFP and nVenus constructs co-infiltrated in N. benthamiana leaves; yellow fluorescence read by confocal microscopy; 30 nuclei examined for each pair"}, "[10]": {"molecular_target": "DCL1-MYC (Arabidopsis) (UniProt Q9SP32)", "assay": "co-IP; PRL1-YFP or YFP co-expressed with DCL1-MYC or SE-MYC in N. benthamiana; extracts incubated with anti-YFP or anti-MYC antibodies coupled to protein G agarose beads; western blot"}, "[11]": {"molecular_target": "T6, SE-MYC (Arabidopsis) (UniProt Q9ZVD0)", "T6 sequence": "B2 chain", "assay": "co-IP; PRL1-YFP or YFP co-expressed with DCL1-MYC or SE-MYC in N. benthamiana; extracts incubated with anti-YFP or anti-MYC antibodies coupled to protein G agarose beads; western blot"}}, "note": "These are yes or no findings as the source states them, for the method shown. Binding seen in cells or lysates may run through a third protein. Some binding calls cover weakened binding; strength is not graded here. Where a sequence is shown, tags or fusion partners need not be part of it."}
{"molecule": "RPB2, the second largest subunit of Pol II (from UniProt P38420 1-1188)", "values": [{"measurement": "binding", "setting": "[1]", "result": "binds"}]}
{"molecule": "DCL1-MYC (from UniProt Q9SP32 1-1909) (enzyme)", "values": [{"measurement": "binding", "setting": "[2]", "result": "binds"}]}
{"molecule": "B1", "values": [{"measurement": "binding", "setting": "[3]", "result": "binds"}]}
{"molecule": "B2", "values": [{"measurement": "binding", "setting": "[2]", "result": "binds"}]}
{"molecule": "B3", "values": [{"measurement": "binding", "setting": "[4]", "result": "binds"}, {"measurement": "binding", "setting": "[5]", "result": "binds"}]}
{"molecule": "B4", "values": [{"measurement": "binding", "setting": "[6]", "result": "binds"}, {"measurement": "binding", "setting": "[7]", "result": "binds"}, {"measurement": "binding", "setting": "[8]", "result": "binds"}, {"measurement": "binding", "setting": "[9]", "result": "binds"}]}
{"molecule": "B5", "values": [{"measurement": "binding", "setting": "[10]", "result": "binds"}, {"measurement": "binding", "setting": "[11]", "result": "binds"}]}
